# Assay results taken from publication PMC5288343.
# Results are given in words; binding and its absence hold for the method and conditions named. Binding seen in cells or lysates may run through a third protein. Binding calls can cover weak binding; strength is not graded here.
# B1: SucA (enzyme, UniProt A0AC61TJZ9 1-935)
# chain: MQNGTMKAWLDSSYLAGANQSYIEQLYEDYLTDPDSVEHSWKILFQQLPANGLPPDQFHSQTRDYFRRLAKDPARFGQSFNDPQTDAKQVKVLQLINAFRFRGHQQANLDPLGLWKQEPVPDLDPAFHNLSAEDFDETFNVGSFAVGSETMRLADIYRALQQTYCGTIGAEYMHLTNTDEKRWLQQRLESVMGQPSFNAEEKRRFLRELTAAEGLERYLGAKFPGAKRFSLEGGDALIPMLKELIRHAGLHGTREVVLGMAHRGRLNVLINVLGKHADELFDEFAGKHKDHLGTGDVKYHMGFSSDMATEGGPVHLALAFNPSHLEIVSPVVMGSVRARRDRLDRTRSDIVLPITIHGDAAVTGQGIVQETLNMSQARGYEVGGTVRIVINNQIGFTTSNPLDARSSQYCTDIGKMVQAPIFHVNADDPEAVAFVTRLALDFRNTFKRDVFIDLVCYRRHGHNEADEPSATQPVMYQKIKKHPTPRKLYADRLTEQGVVSLEDATEMVNLYRDALDSGGCVVEEWRPMTMHSVTWDPYLHHEWDEAYPHAVETQRLQELARRISRVPEEVEMQARVAKIYADRAEMADGSKPFDWGGAETLAYATLVDEGIPVRLSGEDCGRGTFFHRHAVIHNQKDGSLYVPLENVHHAQGDFKVWDSVLSEAAVLAFEYGYASAEPRTLTIWEAQFGDFANGAQVVIDQFISSGEQKWGRLCGLVMLLPHGYEGQGPEHSSARLERYLQLCAQQNIQVCVPSTPAQVYHMLRRQALRGMRRPLVVMSPKSLLRHPLAISSLEELAQGSFQPAIGEIDPIDPQQVKRVVMCSGKVYYDLLEQRRKNGQENVAIVRIEQLYPFPHQAVQAVLAPYTQAHDFVWCQEEPLNQGAWYCSQHNFREVIPFGAVLRYAGRPASASPAVGYMSVHREQQQALVDDALHVE
# Target: ETAE_p044 (chloramphenicol O-acetyltransferase) (Edwardsiella tarda)
# Assay: co-IP; mouse antiserum against ETAE_p037 or ETAE_p044 incubated with a mixture of recombinant ETAE_p037 or ETAE_p044 and E. tarda outer membrane proteins, 12 h at 4°C; captured on nProtein A Sepharose 4 Fast Flow, washed with pH 7.0 Tris-HCl, eluted with pH 2.4 glycine-HCl; bands identified by MALDI/TOF-TOF, OmpS2 (OmpF2) and OmpA also by Western blot; only the target purified
binder,measurement,value
B1,binding,binds
